No constants are given. Whether binding was seen depends on the method and setting. In cells and extracts the contact can be indirect. A result given as binding can be weak or reduced; the word gives no strength.
Target: hemolysin-coregulated protein 1 (Hcp1), His-tagged (E. coli K1 RS218)
Experiment: co-IP; HBMEC cells treated with His-tagged Hcp1, lysed (1% NP-40, 150 mM NaCl); precipitated with anti-His antibody on Protein A beads (IgG control); Western blot with antibodies to the candidates; only the target purified

B1: Rho GTPase activating protein 24 (ARHGAP24) (protein, UniProt Q8N264 1-748)
chain: MEENNDSTENPQQGQGRQNAIKCGWLRKQGGFVKTWHTRWFVLKGDQLYYFKDEDETKPLGTIFLPGNKVSEHPCNEENPGKFLFEVVPGGDRDRMTANHESYLLMASTQNDMEDWVKSIRRVIWGPFGGGIFGQKLEDTVRYEKRYGNRLAPMLVEQCVDFIRQRGLKEEGLFRLPGQANLVKELQDAFDCGEKPSFDSNTDVHTVASLLKLYLRELPEPVIPYAKYEDFLSCAKLLSKEEEAGVKELAKQVKSLPVVNYNLLKYICRFLDEVQSYSGVNKMSVQNLATVFGPNILRPKVEDPLTIMEGTVVVQQLMSVMISKHDCLFPKDAELQSKPQDGVSNNNEIQKKATMGQLQNKENNNTKDSPSRQCSWDKSESPQRSSMNNGSPTALSGSKTNSPKNSVHKLDVSRSPPLMVKKNPAFNKGSGIVTNGSFSSSNAEGLEKTQTTPNGSLQARRSSSLKVSGTKMGTHSVQNGTVRMGILNSDTLGNPTNVRNMSWLPNGYVTLRDNKQKEQAGELGQHNRLSTYDNVHQQFSMMNLDDKQSIDSATWSTSSCEISLPENSNSCRSSTTTCPEQDFFGGNFEDPVLDGPPQDDLSHPRDYESKSDHRSVGGRSSRATSSSDNSETFVGNSSSNHSALHSLVSSLKQEMTKQKIEYESRIKSLEQRNLTLETEMMSLHDELDQERKKFTMIEIKMRNAERAKEDAEKRNDMLQKEMEQFFSTFGELTVEPRRTERGNTIWIQ
binding: binds
